Data: the supplement of paper PMC10849652
This is one part of the list.

Chains of the proteins cited; added tags and fusions are not shown. Lines headed by an entry give the natural chain unless they say otherwise; changes in a name come on top.
UniProt Q9NV66: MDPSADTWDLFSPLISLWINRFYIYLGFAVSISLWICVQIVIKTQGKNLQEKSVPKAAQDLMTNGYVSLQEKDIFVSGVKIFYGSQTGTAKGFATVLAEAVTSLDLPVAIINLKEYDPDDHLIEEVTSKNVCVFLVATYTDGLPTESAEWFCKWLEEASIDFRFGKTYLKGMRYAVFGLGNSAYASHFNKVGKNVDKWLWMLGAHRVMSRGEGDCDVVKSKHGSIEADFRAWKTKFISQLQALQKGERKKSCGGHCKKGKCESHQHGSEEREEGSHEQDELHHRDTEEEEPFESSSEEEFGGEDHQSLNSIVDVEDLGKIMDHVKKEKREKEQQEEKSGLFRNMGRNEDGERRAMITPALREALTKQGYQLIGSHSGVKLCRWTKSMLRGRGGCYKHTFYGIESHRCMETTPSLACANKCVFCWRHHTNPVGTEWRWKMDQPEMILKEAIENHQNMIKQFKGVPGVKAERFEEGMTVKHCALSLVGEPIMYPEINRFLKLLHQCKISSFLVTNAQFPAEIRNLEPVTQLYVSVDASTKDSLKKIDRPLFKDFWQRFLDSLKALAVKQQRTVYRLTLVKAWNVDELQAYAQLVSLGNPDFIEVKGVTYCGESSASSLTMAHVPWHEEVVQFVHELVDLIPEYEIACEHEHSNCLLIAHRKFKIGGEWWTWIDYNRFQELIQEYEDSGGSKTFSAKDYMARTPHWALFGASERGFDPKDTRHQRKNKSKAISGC
UniProt Q12792, whole entry, looked up: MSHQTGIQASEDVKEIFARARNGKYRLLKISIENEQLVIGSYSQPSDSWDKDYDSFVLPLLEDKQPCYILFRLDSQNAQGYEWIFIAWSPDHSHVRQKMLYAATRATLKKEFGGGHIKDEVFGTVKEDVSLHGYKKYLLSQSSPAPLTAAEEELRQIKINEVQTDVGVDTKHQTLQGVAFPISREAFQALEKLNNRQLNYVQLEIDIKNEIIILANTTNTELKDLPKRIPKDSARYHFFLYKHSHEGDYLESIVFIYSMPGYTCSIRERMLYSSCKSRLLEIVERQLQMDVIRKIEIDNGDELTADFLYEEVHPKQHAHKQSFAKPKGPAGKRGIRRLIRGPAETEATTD
UniProt P04818: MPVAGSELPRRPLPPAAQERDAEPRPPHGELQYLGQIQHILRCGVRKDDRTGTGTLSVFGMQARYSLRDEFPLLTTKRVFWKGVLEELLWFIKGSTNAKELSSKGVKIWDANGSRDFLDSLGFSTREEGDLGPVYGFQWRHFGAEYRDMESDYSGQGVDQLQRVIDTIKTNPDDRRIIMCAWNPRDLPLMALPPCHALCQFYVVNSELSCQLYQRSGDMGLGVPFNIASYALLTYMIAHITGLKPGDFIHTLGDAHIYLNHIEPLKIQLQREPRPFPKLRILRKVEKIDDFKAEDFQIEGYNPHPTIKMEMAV
UniProt P0CG48, whole entry, looked up: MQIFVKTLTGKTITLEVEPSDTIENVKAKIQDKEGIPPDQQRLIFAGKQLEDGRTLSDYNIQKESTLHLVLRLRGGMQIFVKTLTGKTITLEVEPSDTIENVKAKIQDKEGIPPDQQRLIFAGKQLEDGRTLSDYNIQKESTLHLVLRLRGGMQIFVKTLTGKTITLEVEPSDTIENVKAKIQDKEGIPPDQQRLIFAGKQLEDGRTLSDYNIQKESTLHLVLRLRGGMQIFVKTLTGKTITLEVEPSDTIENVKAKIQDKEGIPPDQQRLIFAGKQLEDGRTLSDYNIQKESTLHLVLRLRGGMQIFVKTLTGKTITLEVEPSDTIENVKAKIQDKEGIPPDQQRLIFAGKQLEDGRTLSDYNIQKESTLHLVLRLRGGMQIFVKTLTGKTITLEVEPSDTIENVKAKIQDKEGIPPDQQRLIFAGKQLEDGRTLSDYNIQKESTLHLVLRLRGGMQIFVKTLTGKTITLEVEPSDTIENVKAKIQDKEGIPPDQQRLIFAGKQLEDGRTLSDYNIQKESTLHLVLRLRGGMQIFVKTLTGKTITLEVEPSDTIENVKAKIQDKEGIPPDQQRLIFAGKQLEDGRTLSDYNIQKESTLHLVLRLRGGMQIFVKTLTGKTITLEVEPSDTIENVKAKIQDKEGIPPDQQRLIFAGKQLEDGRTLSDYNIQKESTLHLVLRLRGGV
UniProt Q2NL82: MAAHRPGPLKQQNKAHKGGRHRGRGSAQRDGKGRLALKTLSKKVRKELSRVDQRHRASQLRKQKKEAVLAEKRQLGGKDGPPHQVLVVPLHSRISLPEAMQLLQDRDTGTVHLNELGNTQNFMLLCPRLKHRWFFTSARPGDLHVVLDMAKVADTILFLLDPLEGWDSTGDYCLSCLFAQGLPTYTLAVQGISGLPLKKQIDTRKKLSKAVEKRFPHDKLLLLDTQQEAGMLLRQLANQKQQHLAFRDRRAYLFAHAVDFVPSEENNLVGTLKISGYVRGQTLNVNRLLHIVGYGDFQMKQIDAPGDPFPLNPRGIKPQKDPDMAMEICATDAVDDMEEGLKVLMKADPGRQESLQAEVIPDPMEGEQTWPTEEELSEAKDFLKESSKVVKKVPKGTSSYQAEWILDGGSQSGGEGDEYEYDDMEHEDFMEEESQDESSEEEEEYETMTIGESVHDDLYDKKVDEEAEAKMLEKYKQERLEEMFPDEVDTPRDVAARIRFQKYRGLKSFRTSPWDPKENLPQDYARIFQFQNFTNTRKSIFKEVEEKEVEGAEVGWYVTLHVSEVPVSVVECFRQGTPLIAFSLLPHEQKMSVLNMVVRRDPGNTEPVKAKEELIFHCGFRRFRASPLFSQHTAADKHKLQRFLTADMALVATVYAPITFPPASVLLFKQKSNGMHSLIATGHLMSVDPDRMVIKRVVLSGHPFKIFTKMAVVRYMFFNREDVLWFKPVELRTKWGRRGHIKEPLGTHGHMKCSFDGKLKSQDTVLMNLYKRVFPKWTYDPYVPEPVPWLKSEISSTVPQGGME
UniProt P40222: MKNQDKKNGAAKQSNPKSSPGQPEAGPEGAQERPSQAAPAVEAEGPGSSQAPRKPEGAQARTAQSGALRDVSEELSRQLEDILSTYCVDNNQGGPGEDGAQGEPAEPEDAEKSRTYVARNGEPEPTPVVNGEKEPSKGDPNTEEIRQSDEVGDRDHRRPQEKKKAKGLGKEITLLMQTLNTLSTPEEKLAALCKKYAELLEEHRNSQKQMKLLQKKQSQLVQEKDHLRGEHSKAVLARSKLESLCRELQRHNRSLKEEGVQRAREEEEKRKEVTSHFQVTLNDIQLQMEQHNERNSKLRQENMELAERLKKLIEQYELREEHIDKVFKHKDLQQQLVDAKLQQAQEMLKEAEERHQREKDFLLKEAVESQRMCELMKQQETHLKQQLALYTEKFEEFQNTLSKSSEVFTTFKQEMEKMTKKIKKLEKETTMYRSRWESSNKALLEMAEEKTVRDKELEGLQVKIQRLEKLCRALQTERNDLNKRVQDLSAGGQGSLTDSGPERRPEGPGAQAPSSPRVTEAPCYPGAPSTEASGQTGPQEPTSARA
UniProt P07437, whole entry, looked up: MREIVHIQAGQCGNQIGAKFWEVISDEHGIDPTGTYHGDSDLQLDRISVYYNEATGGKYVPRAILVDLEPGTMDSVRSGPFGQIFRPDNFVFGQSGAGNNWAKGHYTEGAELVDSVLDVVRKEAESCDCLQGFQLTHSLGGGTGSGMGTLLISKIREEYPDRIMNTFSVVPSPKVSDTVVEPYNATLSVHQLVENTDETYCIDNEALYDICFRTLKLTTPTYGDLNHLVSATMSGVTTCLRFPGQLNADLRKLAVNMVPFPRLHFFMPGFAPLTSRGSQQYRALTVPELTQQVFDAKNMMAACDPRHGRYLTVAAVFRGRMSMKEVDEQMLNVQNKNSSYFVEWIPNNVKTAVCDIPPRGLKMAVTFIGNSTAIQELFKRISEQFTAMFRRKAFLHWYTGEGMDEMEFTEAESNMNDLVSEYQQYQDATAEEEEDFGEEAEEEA
UniProt Q14157: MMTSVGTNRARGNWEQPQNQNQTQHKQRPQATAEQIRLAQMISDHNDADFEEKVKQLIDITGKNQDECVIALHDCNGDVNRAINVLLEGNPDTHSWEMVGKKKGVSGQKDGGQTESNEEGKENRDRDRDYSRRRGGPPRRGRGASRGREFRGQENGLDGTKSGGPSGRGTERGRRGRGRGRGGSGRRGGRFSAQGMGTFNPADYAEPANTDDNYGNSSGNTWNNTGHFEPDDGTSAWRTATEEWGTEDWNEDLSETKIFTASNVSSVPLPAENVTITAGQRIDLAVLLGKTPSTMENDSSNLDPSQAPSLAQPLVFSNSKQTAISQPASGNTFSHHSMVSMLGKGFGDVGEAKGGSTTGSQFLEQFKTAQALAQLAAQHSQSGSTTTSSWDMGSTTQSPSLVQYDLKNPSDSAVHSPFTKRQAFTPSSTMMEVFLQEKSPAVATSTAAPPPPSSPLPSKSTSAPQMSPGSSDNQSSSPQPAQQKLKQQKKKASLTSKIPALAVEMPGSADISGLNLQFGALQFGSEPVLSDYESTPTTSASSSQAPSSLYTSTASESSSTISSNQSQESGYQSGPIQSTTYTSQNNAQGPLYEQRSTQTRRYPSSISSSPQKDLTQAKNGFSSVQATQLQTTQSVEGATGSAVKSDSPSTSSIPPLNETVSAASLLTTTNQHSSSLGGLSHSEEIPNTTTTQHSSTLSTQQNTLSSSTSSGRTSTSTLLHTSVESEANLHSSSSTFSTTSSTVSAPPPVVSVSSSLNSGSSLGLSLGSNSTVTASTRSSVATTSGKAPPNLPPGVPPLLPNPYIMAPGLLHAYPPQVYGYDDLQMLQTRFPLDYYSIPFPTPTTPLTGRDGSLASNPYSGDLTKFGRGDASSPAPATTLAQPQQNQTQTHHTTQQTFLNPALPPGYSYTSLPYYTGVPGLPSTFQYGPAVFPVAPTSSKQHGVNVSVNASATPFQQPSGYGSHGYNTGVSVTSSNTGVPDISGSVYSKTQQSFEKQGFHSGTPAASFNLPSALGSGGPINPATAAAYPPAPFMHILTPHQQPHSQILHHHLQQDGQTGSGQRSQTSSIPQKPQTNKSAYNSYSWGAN
UniProt O43396: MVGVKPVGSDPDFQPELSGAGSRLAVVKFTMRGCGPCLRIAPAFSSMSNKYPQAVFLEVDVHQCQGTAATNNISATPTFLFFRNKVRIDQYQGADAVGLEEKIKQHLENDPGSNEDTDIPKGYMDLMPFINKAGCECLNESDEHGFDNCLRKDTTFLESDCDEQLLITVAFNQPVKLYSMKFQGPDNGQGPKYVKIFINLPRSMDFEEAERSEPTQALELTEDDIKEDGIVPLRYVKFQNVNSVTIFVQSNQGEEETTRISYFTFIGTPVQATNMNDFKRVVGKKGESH
UniProt Q9BRA2: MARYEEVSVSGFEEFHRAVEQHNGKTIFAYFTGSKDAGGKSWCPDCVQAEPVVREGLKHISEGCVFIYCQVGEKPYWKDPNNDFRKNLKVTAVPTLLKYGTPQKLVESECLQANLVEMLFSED
UniProt Q14166: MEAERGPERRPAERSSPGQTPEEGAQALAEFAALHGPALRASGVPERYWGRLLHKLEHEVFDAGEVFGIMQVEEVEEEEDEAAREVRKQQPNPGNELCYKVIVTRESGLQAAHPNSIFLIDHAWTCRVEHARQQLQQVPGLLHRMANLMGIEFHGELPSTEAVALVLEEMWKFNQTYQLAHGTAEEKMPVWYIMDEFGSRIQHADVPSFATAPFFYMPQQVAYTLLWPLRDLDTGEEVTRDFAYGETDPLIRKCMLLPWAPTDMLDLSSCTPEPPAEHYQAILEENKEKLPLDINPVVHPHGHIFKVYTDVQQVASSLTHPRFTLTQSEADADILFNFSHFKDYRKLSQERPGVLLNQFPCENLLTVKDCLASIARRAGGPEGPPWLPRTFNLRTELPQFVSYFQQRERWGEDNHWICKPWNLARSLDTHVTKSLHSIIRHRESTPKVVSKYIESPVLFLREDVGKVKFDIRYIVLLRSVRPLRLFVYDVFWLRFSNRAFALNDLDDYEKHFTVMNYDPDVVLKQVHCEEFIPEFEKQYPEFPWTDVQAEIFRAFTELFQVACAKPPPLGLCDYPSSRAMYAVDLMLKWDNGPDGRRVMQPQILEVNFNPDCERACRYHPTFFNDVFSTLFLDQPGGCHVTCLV
UniProt P49459, whole entry, looked up: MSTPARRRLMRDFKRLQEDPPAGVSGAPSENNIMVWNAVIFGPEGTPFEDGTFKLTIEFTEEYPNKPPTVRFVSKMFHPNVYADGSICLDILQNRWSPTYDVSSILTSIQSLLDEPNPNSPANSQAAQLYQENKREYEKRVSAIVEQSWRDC
UniProt Q99816: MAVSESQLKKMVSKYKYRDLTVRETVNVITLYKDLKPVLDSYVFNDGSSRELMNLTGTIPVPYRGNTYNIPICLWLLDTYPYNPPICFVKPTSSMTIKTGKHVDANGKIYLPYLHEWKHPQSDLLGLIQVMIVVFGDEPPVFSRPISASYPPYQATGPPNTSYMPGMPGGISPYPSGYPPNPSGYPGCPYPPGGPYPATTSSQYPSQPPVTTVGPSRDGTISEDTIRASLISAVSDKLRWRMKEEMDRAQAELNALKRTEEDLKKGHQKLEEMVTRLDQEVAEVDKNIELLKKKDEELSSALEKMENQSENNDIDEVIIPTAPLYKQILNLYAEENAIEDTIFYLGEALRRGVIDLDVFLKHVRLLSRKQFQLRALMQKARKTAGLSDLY

How the values were obtained:
Test in all cases: log2 fold change, soluble protein after heating vs DMSO (PISA); higher = thermal stabilisation; K562 cells, 10 uM, 30 min; active = over 0.2 and 3.5 SD of the protein, either way, in both replicates (recomputed)
[1] = compound: NC(=O)Nc1cc(-c2cccc(F)c2)sc1C(=O)N[C@H]1CCCNC1
Summary of the method: (§1)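 K562 cells at 2×10^6 cells/mL were given 10 μM compound for 30 min. Aliquots then went through 3 min of heating across 48°C-58°C, were pooled, and were extracted in PBS with 0.5% NP-40 at 4°C, and the supernatant after 21,000xg for 90 min was quantified by TMTpro 16plex LC-MS/MS with channel sums equalised. Thermal stability relative to control samples, from duplicates, is given as log2 fold change.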

[2] = compound: NC(=O)c1cnc(N[C@@H]2CCCC[C@@H]2N)nc1Nc1cccc(-n2nccn2)c1
Summary of the method: as §1

[3] = compound: NC1(c2ccc(-c3nc4ccn5c(=O)[nH]nc5c4cc3-c3ccccc3)cc2)CCC1
Summary of the method: as §1

[4] = compound: NCC(=O)Nc1ccc(-n2nc(C(F)(F)F)cc2-c2ccc3c(ccc4ccccc43)c2)cc1
Summary of the method: as §1

entinostat = compound: Nc1ccccc1NC(=O)c1ccc(CNC(=O)OCc2cccnc2)cc1 [entinostat]
Summary of the method: as §1

vorinostat = compound: O=C(CCCCCCC(=O)Nc1ccccc1)NO [vorinostat]
Summary of the method: as §1

citarinostat = compound: O=C(CCCCCCNC(=O)c1cnc(N(c2ccccc2)c2ccccc2Cl)nc1)NO [citarinostat]
Summary of the method: as §1

silmitasertib = compound: O=C(O)c1ccc2c(c1)nc(Nc1cccc(Cl)c1)c1ccncc12 [silmitasertib]
Summary of the method: as §1

[5] = compound: O=C1NC(=O)C(c2cnc3ccccn23)=C1c1cn2c3c(cc(F)cc13)CN(C(=O)N1CCCCC1)CC2
Summary of the method: as §1

[6] = compound: c1cc(OCCN2CCCCC2)cc(-c2n[nH]c3ccc(-c4nnc[nH]4)cc23)c1
Summary of the method: as §1

Measured: log2 fold change

TYW1 (UniProt Q9NV66)
inactive: [1] -0.022 | [2] 0.05 | [3] 0.004 | [4] 0.013 | entinostat 0.028 | vorinostat -0.056 | citarinostat 0.053 | silmitasertib 0.039 | [5] -0.141 | [6] -0.007

TUBAL3 (UniProt A6NHL2)
inactive: [1] 0 | [2] -0.082 | [3] -0.006 | [4] 0.031 | entinostat 0.061 | vorinostat 0.037 | citarinostat -0.06 | silmitasertib 0.087 | [5] 0.059 | [6] -0.291

TSTA3 (UniProt Q13630)
inactive: [1] 0.027 | [2] 0.022 | [3] 0.014 | [4] 0.005 | entinostat -0.031 | vorinostat -0.043 | citarinostat -0.014 | silmitasertib 0.008 | [5] -0.057 | [6] -0.021

TTC27 (UniProt Q6P3X3)
inactive: [1] -0.026 | [2] -0.045 | [3] -0.108 | [4] -0.02 | entinostat 0 | vorinostat 0.147 | citarinostat 0.065 | silmitasertib 0.169 | [5] 0.155 | [6] -0.12

TWF1 (UniProt Q12792)
inactive: [1] -0.053 | [2] 0.014 | [3] -0.063 | [4] -0.163 | entinostat -0.017 | vorinostat -0.017 | citarinostat 0.015 | silmitasertib -0.011 | [5] -0.038 | [6] -0.011

TTC19 (UniProt Q6DKK2)
inactive: [1] 0.012 | [2] -0.011 | [3] -0.133 | [4] -0.071 | entinostat 0.015 | vorinostat 0.01 | citarinostat 0.045 | silmitasertib -0.011 | [5] -0.013 | [6] -0.033

TYMS (UniProt P04818)
inactive: [1] -0.069 | [2] 0.015 | [3] -0.032 | [4] 0.084 | entinostat -0.021 | vorinostat 0.045 | citarinostat 0.025 | silmitasertib -0.003 | [5] 0.008 | [6] 0.002

TUSC3 isoform 2 (UniProt Q13454)
inactive: [1] 0.051 | [2] 0.004 | [3] 0.036 | [4] -0.033 | entinostat 0.053 | vorinostat -0.06 | citarinostat -0.01 | silmitasertib 0.012 | [5] 0.045 | [6] -0.023

UBC (UniProt P0CG48)
inactive: [1] -0.003 | [2] -0.022 | [3] 0.214 | [4] 0.01 | entinostat -0.023 | vorinostat -0.11 | citarinostat -0.13 | silmitasertib -0.076 | [5] -0.117 | [6] -0.068

TUBGCP2 isoform 4 (UniProt Q9BSJ2)
inactive: [1] -0.008 | [2] -0.019 | [3] -0.038 | [4] 0.04 | entinostat -0.106 | vorinostat 0.15 | citarinostat -0.025 | silmitasertib 0.012 | [5] 0.082 | [6] -0.079

TSR1 (UniProt Q2NL82)
inactive: [1] -0.023 | [2] 0.059 | [3] 0.047 | [4] 0.057 | entinostat 0.027 | vorinostat 0.056 | citarinostat 0.001 | silmitasertib -0.05 | [5] 0.121 | [6] -0.092

TXLNA (UniProt P40222)
inactive: [1] 0 | [2] -0.016 | [3] -0.036 | [4] -0.042 | entinostat 0.008 | vorinostat -0.01 | citarinostat 0.027 | silmitasertib 0.008 | [5] -0.012 | [6] 0.002

Copied from above (2 entries):
TUBGCP2 isoform 4 (UniProt Q9BSJ2)
inactive: [1] -0.008 | [2] -0.019 | [3] -0.038 | [4] 0.04 | entinostat -0.106 | vorinostat 0.15 | citarinostat -0.025 | silmitasertib 0.012 | [5] 0.082 | [6] -0.079

TSR1 (UniProt Q2NL82)
inactive: [1] -0.023 | [2] 0.059 | [3] 0.047 | [4] 0.057 | entinostat 0.027 | vorinostat 0.056 | citarinostat 0.001 | silmitasertib -0.05 | [5] 0.121 | [6] -0.092

The list goes on:

UBE2R2 (UniProt Q712K3)
inactive: [1] -0.023 | [2] -0.122 | [3] -0.058 | [4] -0.044 | entinostat 0.055 | vorinostat -0.027 | citarinostat 0.059 | silmitasertib 0.035 | [5] -0.05 | [6] -0.06

TXNDC5 (UniProt Q8NBS9)
inactive: [1] -0.006 | [2] 0.042 | [3] 0.011 | [4] 0.05 | entinostat 0.002 | vorinostat -0.054 | citarinostat 0.016 | silmitasertib 0.006 | [5] -0.039 | [6] 0.041

TXNRD1 (UniProt Q16881)
inactive: [1] -0.082 | [2] -0.052 | [3] -0.077 | [4] -0.007 | entinostat -0.027 | vorinostat -0.005 | citarinostat 0.017 | silmitasertib -0.036 | [5] -0.122 | [6] 0.006

TUBB (UniProt P07437)
inactive: [1] 0.023 | [2] -0.031 | [3] -0.035 | [4] 0.003 | entinostat -0.019 | vorinostat 0.032 | citarinostat 0.005 | silmitasertib -0.058 | [5] -0.026 | [6] -0.052

TSR3 (UniProt Q9UJK0)
inactive: [1] -0.006 | [2] 0.095 | [3] 0.056 | [4] 0.009 | entinostat -0.076 | vorinostat 0.028 | citarinostat -0.011 | silmitasertib -0.04 | [5] 0.048 | [6] -0.135

TUBB6 (UniProt Q9BUF5)
inactive: [1] -0.044 | [2] 0.06 | [3] -0.031 | [4] 0.009 | entinostat -0.035 | vorinostat 0.015 | citarinostat 0.019 | silmitasertib -0.063 | [5] -0.01 | [6] -0.066

UBAP2L isoform 1 (UniProt Q14157)
inactive: [1] 0.071 | [2] 0.076 | [3] -0.064 | [4] 0.039 | entinostat -0.043 | vorinostat 0.041 | citarinostat -0.022 | silmitasertib -0.031 | [5] -0.012 | [6] 0.03

TXNL1 (UniProt O43396)
inactive: [1] -0.048 | [2] -0.013 | [3] -0.084 | [4] -0.015 | entinostat 0.028 | vorinostat 0.018 | citarinostat 0.087 | silmitasertib 0.074 | [5] -0.004 | [6] -0.03

TXNDC17 (UniProt Q9BRA2)
inactive: [1] 0.02 | [2] 0.023 | [3] -0.002 | [4] 0.004 | entinostat 0.027 | vorinostat 0.011 | citarinostat 0.038 | silmitasertib -0.045 | [5] -0.017 | [6] -0.005

TXN (UniProt P10599)
inactive: [1] -0.022 | [2] 0.008 | [3] 0.03 | [4] 0.057 | entinostat -0.021 | vorinostat -0.052 | citarinostat -0.013 | silmitasertib -0.022 | [5] 0.003 | [6] 0.038

TTLL12 (UniProt Q14166)
inactive: [1] 0.137 | [2] 0.002 | [3] 0.183 | [4] 0.123 | entinostat 0.081 | vorinostat 0.063 | citarinostat -0.068 | silmitasertib 0.154 | [5] 0.146 | [6] -0.161

TUBA4A (UniProt P68366)
inactive: [1] 0.004 | [2] -0.02 | [3] -0.063 | [4] 0.028 | entinostat -0.024 | vorinostat 0.062 | citarinostat 0.031 | silmitasertib -0.065 | [5] -0.059 | [6] 0.009

UBE2A (UniProt P49459)
inactive: [1] -0.11 | [2] 0.021 | [3] -0.079 | [4] -0.037 | entinostat -0.019 | vorinostat -0.008 | citarinostat 0.004 | silmitasertib -0.076 | [5] -0.094 | [6] 0.071

TSG101 (UniProt Q99816)
inactive: [1] -0.02 | [2] -0.082 | [3] -0.157 | [4] -0.033 | entinostat 0.038 | vorinostat -0.007 | citarinostat 0.053 | silmitasertib 0.025 | [5] -0.103 | [6] 0.025

UBE2H (UniProt P62256)
inactive: [1] 0 | [2] -0.048 | [3] -0.054 | [4] -0.05 | entinostat 0.029 | vorinostat 0 | citarinostat 0.1 | silmitasertib 0.044 | [5] -0.123 | [6] 0.02

TTC1 (UniProt Q99614)
inactive: [1] -0.036 | [2] -0.026 | [3] 0.037 | [4] 0.037 | entinostat -0.066 | vorinostat -0.047 | citarinostat -0.031 | silmitasertib 0.008 | [5] -0.073 | [6] 0.015

TUBA1B (UniProt P68363)
inactive: [1] -0.005 | [2] 0.005 | [3] -0.041 | [4] 0 | entinostat -0.012 | vorinostat 0.028 | citarinostat 0.022 | silmitasertib -0.04 | [5] 0.003 | [6] -0.023

TXNDC16 (UniProt Q9P2K2)
inactive: [1] -0.011 | [2] -0.074 | [3] -0.048 | [4] 0.021 | entinostat 0.098 | vorinostat -0.063 | citarinostat -0.084 | silmitasertib 0.08 | [5] 0.037 | [6] 0.02
